In paper PMC10167344:
These are yes or no findings as the source states them, for the method shown. In cells and extracts the contact can be indirect. Some results given as binding are weak or reduced against the parent protein; the word gives no strength. Tags and fused reporters may be left off the sequences shown.

Chains of the proteins cited; added tags and fusions are not shown.
UniProt P60953: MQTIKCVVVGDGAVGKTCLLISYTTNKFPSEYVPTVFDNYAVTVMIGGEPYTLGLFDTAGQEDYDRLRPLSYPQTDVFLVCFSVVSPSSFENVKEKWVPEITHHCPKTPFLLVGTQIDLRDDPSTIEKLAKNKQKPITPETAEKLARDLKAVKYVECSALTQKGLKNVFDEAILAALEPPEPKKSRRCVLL
UniProt P46934: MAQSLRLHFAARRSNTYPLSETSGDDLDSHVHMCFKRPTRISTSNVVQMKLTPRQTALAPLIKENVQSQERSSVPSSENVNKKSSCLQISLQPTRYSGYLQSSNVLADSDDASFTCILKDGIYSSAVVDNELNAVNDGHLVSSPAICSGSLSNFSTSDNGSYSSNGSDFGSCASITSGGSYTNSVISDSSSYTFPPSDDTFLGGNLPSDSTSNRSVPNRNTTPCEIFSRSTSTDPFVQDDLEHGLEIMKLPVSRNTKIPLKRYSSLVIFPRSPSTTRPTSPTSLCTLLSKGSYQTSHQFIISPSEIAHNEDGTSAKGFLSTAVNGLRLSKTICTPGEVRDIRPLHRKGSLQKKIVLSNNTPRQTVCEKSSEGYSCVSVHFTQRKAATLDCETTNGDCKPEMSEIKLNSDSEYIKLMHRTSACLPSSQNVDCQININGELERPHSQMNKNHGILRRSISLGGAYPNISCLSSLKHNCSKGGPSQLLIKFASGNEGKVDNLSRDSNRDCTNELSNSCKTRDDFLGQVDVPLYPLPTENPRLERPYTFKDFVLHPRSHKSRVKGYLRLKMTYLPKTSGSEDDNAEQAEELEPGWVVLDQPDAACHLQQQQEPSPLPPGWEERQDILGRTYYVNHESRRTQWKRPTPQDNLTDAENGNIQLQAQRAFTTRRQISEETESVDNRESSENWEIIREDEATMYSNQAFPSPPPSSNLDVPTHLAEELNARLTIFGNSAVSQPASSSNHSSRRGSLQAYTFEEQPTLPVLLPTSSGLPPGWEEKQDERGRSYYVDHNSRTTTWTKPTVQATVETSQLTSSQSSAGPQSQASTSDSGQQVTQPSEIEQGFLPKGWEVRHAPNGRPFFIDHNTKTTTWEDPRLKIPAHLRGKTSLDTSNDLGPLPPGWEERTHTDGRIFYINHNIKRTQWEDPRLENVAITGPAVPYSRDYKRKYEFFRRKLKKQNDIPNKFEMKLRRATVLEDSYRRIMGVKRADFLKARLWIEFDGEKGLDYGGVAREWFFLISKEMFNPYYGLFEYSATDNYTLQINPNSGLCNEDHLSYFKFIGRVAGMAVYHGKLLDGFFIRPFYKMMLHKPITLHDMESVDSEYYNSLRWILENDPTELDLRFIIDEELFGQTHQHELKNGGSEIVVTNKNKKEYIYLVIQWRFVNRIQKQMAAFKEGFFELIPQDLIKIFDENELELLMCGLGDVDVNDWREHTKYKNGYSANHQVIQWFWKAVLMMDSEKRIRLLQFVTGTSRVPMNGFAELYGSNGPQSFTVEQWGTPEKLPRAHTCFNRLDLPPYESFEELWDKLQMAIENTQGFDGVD

How the values were obtained:
[1] = molecular target: T1, Flag-LAPTM5 (lysosomal-associated protein transmembrane 5) (human) (UniProt Q13571); assay: co-IP; HEK293T or L02 cells (which is not stated for Fig. 2f, 6g, 6i) cotransfected with the indicated plasmids; lysis in 20 mM Tris-HCl pH 7.4, 150 mM NaCl, 1 mM EDTA, 1% NP-40; for LAPTM5-CDC42 also after PA stimulation (Fig. 6i)
T1 sequence: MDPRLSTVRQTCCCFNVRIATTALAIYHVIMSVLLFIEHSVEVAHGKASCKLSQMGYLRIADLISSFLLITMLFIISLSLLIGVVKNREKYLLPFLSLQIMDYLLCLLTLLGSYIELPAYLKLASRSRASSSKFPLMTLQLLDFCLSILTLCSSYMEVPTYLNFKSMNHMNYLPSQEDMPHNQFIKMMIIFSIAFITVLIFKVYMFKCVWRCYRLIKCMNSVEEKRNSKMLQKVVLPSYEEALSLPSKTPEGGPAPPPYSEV

[2] = molecular target: T1, Flag-LAPTM5 (lysosomal-associated protein transmembrane 5) (human); assay: co-IP; L02 cells cotransfected with the indicated plasmids (Fig. 2d); lysis in 20 mM Tris-HCl pH 7.4, 150 mM NaCl, 1 mM EDTA, 1% NP-40; protein A/G agarose; washes with 300 mM and 150 mM IP lysis buffer
[3] = molecular target: GST-HA-CDC42 (human) (UniProt P60953); assay: pull-down; GST pull-down (GST precipitation assay); procedure not described in the text shown

Molecule: Myc-CDC42 (Cell Division Cycle 42) (from UniProt P60953 1-191)
- binding [1]: binds

Molecule: HA-NEDD4 (from UniProt P46934 1-1319) (enzyme)
- binding [2]: binds

B1: Flag-LAPTM5 (lysosomal-associated protein transmembrane 5) (protein, UniProt Q13571 1-262)
chain: MDPRLSTVRQTCCCFNVRIATTALAIYHVIMSVLLFIEHSVEVAHGKASCKLSQMGYLRIADLISSFLLITMLFIISLSLLIGVVKNREKYLLPFLSLQIMDYLLCLLTLLGSYIELPAYLKLASRSRASSSKFPLMTLQLLDFCLSILTLCSSYMEVPTYLNFKSMNHMNYLPSQEDMPHNQFIKMMIIFSIAFITVLIFKVYMFKCVWRCYRLIKCMNSVEEKRNSKMLQKVVLPSYEEALSLPSKTPEGGPAPPPYSEV
- binding [3]: binds
